Test [1] deals with T1, HDAC8-HA (histone deacetylase 8) (UniProt Q9BY41).
T1 sequence: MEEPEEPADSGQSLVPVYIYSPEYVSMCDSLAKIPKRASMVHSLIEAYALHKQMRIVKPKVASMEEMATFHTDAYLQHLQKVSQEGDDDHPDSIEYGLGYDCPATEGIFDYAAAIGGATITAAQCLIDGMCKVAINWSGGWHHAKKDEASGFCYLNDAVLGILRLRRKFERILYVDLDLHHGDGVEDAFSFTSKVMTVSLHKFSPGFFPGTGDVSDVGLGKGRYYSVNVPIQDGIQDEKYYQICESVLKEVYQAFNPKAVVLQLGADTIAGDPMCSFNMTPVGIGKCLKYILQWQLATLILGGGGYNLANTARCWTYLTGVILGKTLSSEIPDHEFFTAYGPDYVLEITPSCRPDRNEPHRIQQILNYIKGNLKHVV
The test can be described thus: co-IP.

By UniProt entry, the sequences of proteins in these tests, tags left out.
UniProt Q7Z434: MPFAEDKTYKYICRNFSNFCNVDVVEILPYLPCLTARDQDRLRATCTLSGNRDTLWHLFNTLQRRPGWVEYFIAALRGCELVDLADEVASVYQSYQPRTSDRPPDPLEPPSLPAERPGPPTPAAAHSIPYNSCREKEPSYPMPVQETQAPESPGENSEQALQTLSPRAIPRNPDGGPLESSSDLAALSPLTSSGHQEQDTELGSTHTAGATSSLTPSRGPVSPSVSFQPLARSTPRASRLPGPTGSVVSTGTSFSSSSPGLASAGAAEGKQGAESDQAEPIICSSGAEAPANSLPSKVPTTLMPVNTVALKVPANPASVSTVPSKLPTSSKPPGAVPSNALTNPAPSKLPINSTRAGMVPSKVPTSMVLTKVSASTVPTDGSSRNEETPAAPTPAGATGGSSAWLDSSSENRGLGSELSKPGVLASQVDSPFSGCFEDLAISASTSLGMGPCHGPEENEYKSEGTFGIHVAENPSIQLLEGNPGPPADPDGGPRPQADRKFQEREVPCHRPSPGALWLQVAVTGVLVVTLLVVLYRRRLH

Test [2] concerns the target T2, RIG-I-FLAG (retinoic acid-inducible gene I) (UniProt O95786).
T2 sequence: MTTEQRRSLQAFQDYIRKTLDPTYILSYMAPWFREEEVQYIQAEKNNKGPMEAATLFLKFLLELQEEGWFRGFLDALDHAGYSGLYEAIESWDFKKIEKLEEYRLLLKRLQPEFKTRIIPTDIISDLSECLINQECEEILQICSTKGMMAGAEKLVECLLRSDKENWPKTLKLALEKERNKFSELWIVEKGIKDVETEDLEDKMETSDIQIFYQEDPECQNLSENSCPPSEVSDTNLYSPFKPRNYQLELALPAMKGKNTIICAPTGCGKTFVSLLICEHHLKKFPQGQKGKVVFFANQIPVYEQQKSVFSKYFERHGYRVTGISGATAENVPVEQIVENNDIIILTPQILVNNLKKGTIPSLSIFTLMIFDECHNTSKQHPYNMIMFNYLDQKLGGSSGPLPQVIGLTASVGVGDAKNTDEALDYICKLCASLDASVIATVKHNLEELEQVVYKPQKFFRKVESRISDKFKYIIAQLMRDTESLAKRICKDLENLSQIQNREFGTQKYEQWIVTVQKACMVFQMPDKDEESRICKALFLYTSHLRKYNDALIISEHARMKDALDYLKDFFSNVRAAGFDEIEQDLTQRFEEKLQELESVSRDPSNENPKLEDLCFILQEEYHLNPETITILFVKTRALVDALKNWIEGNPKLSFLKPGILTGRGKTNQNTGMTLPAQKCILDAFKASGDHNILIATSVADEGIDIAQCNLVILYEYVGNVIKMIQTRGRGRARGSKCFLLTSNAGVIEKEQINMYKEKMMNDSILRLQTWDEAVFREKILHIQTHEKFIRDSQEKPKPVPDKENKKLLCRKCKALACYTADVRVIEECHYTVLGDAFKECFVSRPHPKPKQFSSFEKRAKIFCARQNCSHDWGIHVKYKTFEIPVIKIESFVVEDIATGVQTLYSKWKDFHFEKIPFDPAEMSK
Kind of test: co-IP; HEK293T cells co-transfected with the indicated plasmids for 24 h, lysed; anti-FLAG, anti-MYC or anti-HA antibody with GammaBind G Plus-Sepharose overnight at 4°C; precipitates analysed by western blot.

The target of test [3] is T3, HDAC8-MYC (histone deacetylase 8) (UniProt Q9BY41).
T3 sequence: T1 sequence
The test is described as above.

The target of test [4] is T1, HDAC8-HA (histone deacetylase 8). The test is described as above.

The values that follow come from PMC11257846.

No constants are given. Whether binding was seen depends on the method and setting. Binding seen in cells or lysates may run through a third protein. Some results given as binding are weak or reduced against the parent protein; the word gives no strength. Tags and fused reporters may be left off the sequences shown.

As for “MAVS-MYC (mitochondria antiviral signaling protein) (from UniProt Q7Z434 1-540)”, the binding entry in test [1] was “no binding”.

B1: HDAC8-MYC (histone deacetylase 8) (enzyme, UniProt Q9BY41 1-377)
chain: T1 sequence
Turning to B1, in test [2], the binding entry was “binds”.

B2: RIG-I-FLAG (retinoic acid-inducible gene I) (protein, UniProt O95786 1-925)
chain: T2 sequence
Regarding B2, the binding result in test [3] is “binds”.

B3: TBK1-FLAG (enzyme, UniProt Q9UHD2 1-729)
chain: MQSTSNHLWLLSDILGQGATANVFRGRHKKTGDLFAIKVFNNISFLRPVDVQMREFEVLKKLNHKNIVKLFAIEEETTTRHKVLIMEFCPCGSLYTVLEEPSNAYGLPESEFLIVLRDVVGGMNHLRENGIVHRDIKPGNIMRVIGEDGQSVYKLTDFGAARELEDDEQFVSLYGTEEYLHPDMYERAVLRKDHQKKYGATVDLWSIGVTFYHAATGSLPFRPFEGPRRNKEVMYKIITGKPSGAISGVQKAENGPIDWSGDMPVSCSLSRGLQVLLTPVLANILEADQEKCWGFDQFFAETSDILHRMVIHVFSLQQMTAHKIYIHSYNTATIFHELVYKQTKIISSNQELIYEGRRLVLEPGRLAQHFPKTTEENPIFVVSREPLNTIGLIYEKISLPKVHPRYDLDGDASMAKAITGVVCYACRIASTLLLYQELMRKGIRWLIELIKDDYNETVHKKTEVVITLDFCIRNIEKTVKVYEKLMKINLEAAELGEISDIHTKLLRLSSSQGTIETSLQDIDSRLSPGGSLADAWAHQEGTHPKDRNVEKLQVLLNCMTEIYYQFKKDKAERRLAYNEEQIHKFDKQKLYYHATKAMTHFTDECVKKYEAFLNKSEEWIRKMLHLRKQLLSLTNQCFDIEEEVSKYQEYTNELQETLPQKMFTASSGIKHTMTPIYPSSNTLVEMTLGMKKLKEEMEGVVKELAENNHILERFGSLTMDGGLRNVDCL
On to B3, for which, in test [4], the binding entry is on record as “no binding”.

B4: MDA5-FLAG (melanoma differentiation-associated factor 5) (protein, UniProt Q9BYX4 1-1025)
chain: MSNGYSTDENFRYLISCFRARVKMYIQVEPVLDYLTFLPAEVKEQIQRTVATSGNMQAVELLLSTLEKGVWHLGWTREFVEALRRTGSPLAARYMNPELTDLPSPSFENAHDEYLQLLNLLQPTLVDKLLVRDVLDKCMEEELLTIEDRNRIAAAENNGNESGVRELLKRIVQKENWFSAFLNVLRQTGNNELVQELTGSDCSESNAEIENLSQVDGPQVEEQLLSTTVQPNLEKEVWGMENNSSESSFADSSVVSESDTSLAEGSVSCLDESLGHNSNMGSDSGTMGSDSDEENVAARASPEPELQLRPYQMEVAQPALEGKNIIICLPTGSGKTRVAVYIAKDHLDKKKKASEPGKVIVLVNKVLLVEQLFRKEFQPFLKKWYRVIGLSGDTQLKISFPEVVKSCDIIISTAQILENSLLNLENGEDAGVQLSDFSLIIIDECHHTNKEAVYNNIMRHYLMQKLKNNRLKKENKPVIPLPQILGLTASPGVGGATKQAKAEEHILKLCANLDAFTIKTVKENLDQLKNQIQEPCKKFAIADATREDPFKEKLLEIMTRIQTYCQMSPMSDFGTQPYEQWAIQMEKKAAKEGNRKERVCAEHLRKYNEALQINDTIRMIDAYTHLETFYNEEKDKKFAVIEDDSDEGGDDEYCDGDEDEDDLKKPLKLDETDRFLMTLFFENNKMLKRLAENPEYENEKLTKLRNTIMEQYTRTEESARGIIFTKTRQSAYALSQWITENEKFAEVGVKAHHLIGAGHSSEFKPMTQNEQKEVISKFRTGKINLLIATTVAEEGLDIKECNIVIRYGLVTNEIAMVQARGRARADESTYVLVAHSGSGVIEHETVNDFREKMMYKAIHCVQNMKPEEYAHKILELQMQSIMEKKMKTKRNIAKHYKNNPSLITFLCKNCSVLACSGEDIHVIEKMHHVNMTPEFKELYIVRENKALQKKCADYQINGEIICKCGQAWGTMMVHKGLDLPCLKIRNFVVVFKNNSTKKQYKKWVELPITFPNLDYSECCLFSDED
For B4, the binding entry in test [4] is recorded as “no binding”.
